# Source: the supplement of paper PMC11732987, “Enantioselective OTUD7B fragment discovery through chemoproteomics screening and high-throughput optimisation” (Communications Chemistry, 2025)
# The chains behind the UniProt entries cited, without tags or fusion partners. Where a name states a change or a piece, a line headed by the entry shows the natural chain unless it says otherwise. Residues count along the entry.
# UniProt Q7RTV0, whole entry, looked up: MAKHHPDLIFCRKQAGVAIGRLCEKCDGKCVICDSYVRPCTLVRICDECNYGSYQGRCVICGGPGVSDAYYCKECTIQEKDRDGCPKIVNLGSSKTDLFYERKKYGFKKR
# UniProt Q99541: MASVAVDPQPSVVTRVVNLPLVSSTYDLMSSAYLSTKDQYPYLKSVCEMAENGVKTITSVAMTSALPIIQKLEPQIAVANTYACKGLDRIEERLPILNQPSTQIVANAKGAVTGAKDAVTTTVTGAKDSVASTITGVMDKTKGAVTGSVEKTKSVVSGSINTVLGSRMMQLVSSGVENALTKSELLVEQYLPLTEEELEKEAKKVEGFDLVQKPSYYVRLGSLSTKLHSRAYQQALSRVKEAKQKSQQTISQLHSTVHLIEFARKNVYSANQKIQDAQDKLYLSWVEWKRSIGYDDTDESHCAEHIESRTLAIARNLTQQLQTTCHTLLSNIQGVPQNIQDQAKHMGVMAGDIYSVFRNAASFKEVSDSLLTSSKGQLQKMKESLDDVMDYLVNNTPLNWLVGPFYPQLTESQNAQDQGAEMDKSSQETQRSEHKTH
# UniProt Q92576, 328-355: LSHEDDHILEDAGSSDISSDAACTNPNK
# UniProt O95602, whole entry, looked up: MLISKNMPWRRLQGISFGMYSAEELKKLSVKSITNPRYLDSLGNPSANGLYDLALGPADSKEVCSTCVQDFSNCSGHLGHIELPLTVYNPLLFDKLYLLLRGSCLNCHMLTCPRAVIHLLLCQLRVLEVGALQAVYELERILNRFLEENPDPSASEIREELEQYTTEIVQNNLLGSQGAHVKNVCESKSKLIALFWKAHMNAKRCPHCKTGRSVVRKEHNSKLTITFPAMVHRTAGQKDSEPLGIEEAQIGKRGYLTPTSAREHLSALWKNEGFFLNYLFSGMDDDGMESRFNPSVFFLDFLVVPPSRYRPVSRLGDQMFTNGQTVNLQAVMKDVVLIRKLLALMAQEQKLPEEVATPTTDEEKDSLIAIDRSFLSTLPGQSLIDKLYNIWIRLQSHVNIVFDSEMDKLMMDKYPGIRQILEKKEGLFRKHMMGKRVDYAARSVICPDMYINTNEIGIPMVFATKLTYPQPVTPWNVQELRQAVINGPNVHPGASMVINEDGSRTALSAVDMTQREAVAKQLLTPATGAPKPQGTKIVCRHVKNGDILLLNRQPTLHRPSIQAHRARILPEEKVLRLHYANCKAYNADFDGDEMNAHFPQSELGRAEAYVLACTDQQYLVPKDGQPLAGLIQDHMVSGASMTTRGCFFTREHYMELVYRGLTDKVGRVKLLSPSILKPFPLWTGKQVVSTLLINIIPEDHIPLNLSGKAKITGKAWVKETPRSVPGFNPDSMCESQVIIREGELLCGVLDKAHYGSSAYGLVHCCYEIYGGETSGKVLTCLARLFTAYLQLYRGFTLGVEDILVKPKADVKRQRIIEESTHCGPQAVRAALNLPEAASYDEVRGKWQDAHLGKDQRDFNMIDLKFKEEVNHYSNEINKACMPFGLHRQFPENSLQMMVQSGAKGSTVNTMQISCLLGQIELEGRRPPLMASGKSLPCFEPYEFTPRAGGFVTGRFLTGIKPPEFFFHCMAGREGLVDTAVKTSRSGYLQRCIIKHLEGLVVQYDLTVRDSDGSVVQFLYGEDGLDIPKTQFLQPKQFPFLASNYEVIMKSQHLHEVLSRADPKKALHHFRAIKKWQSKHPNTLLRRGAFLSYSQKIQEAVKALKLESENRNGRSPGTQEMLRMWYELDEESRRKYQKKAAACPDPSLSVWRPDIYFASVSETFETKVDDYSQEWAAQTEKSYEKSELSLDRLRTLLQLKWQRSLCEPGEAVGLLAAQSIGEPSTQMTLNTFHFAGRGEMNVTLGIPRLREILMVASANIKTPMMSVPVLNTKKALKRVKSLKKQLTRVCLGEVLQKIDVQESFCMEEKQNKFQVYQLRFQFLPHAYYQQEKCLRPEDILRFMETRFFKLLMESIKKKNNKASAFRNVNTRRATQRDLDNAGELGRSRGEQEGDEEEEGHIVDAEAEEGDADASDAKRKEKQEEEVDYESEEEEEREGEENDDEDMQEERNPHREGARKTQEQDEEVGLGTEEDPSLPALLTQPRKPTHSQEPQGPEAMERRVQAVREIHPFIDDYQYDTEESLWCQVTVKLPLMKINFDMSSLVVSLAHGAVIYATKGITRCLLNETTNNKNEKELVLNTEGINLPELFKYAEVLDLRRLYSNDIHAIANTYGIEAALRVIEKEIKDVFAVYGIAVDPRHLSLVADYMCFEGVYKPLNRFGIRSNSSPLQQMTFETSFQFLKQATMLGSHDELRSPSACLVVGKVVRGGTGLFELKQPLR
# UniProt O00443: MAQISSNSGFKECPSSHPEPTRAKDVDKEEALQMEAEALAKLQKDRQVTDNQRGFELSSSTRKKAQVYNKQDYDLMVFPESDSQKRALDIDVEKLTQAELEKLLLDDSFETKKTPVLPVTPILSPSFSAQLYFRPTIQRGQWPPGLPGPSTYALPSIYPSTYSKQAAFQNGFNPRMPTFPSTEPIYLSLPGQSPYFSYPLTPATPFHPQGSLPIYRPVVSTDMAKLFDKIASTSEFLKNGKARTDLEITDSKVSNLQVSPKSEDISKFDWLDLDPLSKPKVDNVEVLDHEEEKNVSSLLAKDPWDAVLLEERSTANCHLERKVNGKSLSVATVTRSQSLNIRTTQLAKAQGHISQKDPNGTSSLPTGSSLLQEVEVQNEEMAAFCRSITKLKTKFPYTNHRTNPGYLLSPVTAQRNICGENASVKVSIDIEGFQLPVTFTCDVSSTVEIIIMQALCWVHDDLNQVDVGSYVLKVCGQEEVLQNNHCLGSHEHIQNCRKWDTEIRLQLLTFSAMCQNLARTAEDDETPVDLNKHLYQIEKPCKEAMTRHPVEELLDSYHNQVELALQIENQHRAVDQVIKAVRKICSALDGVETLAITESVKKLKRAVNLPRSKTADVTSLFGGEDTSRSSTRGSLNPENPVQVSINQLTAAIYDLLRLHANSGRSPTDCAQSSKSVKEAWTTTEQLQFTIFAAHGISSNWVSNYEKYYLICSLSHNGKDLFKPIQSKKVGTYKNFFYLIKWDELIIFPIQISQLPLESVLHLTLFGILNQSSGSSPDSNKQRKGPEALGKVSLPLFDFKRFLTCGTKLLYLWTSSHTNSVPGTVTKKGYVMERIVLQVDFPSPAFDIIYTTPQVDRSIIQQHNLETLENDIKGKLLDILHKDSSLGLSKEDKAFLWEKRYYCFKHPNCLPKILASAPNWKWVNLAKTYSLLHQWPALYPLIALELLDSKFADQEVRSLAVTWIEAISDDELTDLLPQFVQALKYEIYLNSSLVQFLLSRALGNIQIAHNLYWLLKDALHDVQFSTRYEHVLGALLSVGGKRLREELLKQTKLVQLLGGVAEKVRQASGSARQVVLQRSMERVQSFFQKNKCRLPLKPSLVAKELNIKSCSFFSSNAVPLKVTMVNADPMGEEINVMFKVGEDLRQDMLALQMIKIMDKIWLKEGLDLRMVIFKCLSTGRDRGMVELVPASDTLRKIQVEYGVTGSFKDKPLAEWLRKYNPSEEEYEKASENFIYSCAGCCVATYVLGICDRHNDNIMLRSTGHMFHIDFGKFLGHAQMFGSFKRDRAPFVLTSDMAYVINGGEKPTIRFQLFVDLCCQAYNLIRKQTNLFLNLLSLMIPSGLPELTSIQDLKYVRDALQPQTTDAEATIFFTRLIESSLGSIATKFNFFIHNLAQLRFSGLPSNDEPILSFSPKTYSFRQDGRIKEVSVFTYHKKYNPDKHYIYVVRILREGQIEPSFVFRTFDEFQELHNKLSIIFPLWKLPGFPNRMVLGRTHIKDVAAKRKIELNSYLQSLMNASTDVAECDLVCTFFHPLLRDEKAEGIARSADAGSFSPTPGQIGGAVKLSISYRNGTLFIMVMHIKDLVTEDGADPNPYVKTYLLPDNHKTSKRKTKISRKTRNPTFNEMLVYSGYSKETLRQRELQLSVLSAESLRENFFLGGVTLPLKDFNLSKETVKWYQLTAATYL
# UniProt P28340: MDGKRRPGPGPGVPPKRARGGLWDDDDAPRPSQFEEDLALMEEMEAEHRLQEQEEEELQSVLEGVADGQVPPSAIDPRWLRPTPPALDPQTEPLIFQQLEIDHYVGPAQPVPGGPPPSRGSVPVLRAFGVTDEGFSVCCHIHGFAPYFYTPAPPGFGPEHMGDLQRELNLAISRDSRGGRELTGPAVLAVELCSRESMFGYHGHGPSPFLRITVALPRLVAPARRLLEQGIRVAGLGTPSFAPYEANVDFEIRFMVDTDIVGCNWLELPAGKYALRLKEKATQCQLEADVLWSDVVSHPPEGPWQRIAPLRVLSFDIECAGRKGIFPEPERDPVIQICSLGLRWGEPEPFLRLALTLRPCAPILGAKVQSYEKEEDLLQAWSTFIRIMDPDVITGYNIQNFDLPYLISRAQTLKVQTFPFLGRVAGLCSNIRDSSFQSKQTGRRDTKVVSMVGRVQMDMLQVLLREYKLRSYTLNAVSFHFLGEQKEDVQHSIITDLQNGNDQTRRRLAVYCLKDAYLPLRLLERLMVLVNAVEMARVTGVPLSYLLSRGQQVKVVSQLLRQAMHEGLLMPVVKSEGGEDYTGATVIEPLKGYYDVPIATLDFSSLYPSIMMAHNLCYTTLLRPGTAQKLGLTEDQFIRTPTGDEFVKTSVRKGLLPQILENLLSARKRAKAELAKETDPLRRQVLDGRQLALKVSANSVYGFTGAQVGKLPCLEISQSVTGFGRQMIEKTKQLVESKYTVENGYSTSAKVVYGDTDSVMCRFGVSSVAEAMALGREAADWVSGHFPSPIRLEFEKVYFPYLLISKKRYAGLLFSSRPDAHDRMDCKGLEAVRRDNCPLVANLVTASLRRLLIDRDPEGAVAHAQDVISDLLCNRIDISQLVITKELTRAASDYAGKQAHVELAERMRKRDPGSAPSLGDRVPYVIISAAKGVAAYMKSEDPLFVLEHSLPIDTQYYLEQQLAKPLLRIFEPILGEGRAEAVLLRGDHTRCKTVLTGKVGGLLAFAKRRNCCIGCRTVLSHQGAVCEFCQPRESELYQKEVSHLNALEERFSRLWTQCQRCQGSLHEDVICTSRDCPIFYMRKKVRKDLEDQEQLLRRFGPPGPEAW
# UniProt Q8IY26: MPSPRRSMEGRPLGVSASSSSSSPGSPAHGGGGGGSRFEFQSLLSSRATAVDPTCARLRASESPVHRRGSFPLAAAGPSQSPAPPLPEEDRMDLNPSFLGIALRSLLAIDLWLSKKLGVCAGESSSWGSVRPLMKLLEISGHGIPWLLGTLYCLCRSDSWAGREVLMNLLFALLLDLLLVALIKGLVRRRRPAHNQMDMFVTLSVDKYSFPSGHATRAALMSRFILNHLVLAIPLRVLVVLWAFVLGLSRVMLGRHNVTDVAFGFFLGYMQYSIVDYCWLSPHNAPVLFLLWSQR
# UniProt P78337, 66-86: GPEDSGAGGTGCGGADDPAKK
# UniProt Q14651: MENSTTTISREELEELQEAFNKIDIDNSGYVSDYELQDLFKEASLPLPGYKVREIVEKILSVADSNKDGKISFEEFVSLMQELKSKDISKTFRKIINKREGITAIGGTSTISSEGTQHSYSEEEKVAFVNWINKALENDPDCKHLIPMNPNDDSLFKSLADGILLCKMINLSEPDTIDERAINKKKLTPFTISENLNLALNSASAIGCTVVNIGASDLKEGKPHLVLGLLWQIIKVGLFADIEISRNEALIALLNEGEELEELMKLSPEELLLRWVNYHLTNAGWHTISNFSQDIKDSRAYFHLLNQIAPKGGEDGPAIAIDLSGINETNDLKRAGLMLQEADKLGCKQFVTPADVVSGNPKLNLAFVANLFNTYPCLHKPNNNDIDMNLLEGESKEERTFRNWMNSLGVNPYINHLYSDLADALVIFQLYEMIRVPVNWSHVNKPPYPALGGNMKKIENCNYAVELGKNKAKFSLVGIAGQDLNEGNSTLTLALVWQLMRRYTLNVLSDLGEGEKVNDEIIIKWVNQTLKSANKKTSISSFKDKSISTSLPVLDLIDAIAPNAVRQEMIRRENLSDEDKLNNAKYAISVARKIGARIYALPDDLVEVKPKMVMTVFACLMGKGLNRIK
# UniProt Q07864, 1596-1616: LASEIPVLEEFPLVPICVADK
# UniProt Q8TC44: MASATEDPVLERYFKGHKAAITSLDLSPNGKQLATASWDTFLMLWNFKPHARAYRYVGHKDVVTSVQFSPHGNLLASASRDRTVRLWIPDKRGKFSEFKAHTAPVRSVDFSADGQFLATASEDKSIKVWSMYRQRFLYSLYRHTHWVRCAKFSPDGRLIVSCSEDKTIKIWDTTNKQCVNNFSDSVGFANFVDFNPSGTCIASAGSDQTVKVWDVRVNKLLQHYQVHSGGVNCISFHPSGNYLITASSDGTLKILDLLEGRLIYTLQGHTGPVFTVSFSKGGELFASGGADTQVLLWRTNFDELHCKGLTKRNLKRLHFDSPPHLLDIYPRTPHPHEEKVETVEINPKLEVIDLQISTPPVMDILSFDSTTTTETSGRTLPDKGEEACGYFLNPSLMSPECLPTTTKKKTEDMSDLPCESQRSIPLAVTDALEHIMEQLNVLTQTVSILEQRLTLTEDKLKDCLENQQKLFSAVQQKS
# The other results are listed elsewhere or left out. The data scatter; read single values as rough.
# Compound: ClCC(=O)N[C@@H]1CCCc2ccccc12
# Test: log2 mean competition ratio of IA-DTB cysteine labelling (DMSO/compound) (log2 ratio); higher = stronger cysteine engagement by compound
# Conditions: 50 µM; treatment time: 4 h; cell line lysate: HEK293T
# Description: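 IA-DTB competitive cysteine chemoproteomics in HEK293T RIPA lysate. Lysates were treated with compound 29 or 30 at 50 or 200 µM for 4 h, then IA-DTB (500 µM, 1 h), trypsin-digested, NeutrAvidin-enriched and analysed by diaPASEF. Competition ratio = intensity DMSO / intensity compound (n=4 treated, n=64 DMSO); binding: mean log2 CR ≥ 1 and p ≤ 0.05 plus QC filters. Target is the cysteine site.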
row,Target,log2 mean competition ratio
1,PIK3R4 C693 (UniProt Q99570),-0.245
2,POC1A C5 (UniProt Q8NBT0),-0.484
3,PLCB3 C1176 (UniProt Q01970),-0.403
4,PHF5A C11 (UniProt Q7RTV0),0.3
5,POLR1G C14,0.466
6,PLIN2 C47 (UniProt Q99541),-0.0547
7,PHYHD1 C49 (UniProt Q5SRE7),0.11
8,PLCG2 C624 (UniProt P16885),-0.261
9,PIK3C3 C336 (UniProt Q8NEB9),0.331
10,PHF3 C350 (UniProt Q92576),-0.259
11,PLOD1 C484 (UniProt Q02809),-0.0672
12,POLR1A C1332 (UniProt O95602),-0.115
13,PIGK C280 (UniProt Q92643),0.181
14,PIK3C2A C908 (UniProt O00443),0.333
15,PLD2 C736,0.016
16,POLD1 C512 (UniProt P28340),0.659
17,PKNOX1 C326 (UniProt P55347),0.298
18,PLEKHA5 C473 (UniProt Q9HAU0),0.232
19,PLPP6 C55 (UniProt Q8IY26),-0.137

row,Target,log2 mean competition ratio
1,PITX1 C77 (UniProt P78337),-0.159
2,PIP4P1 C87 (UniProt Q86T03),-0.189
3,PIAS3 C418,-0.228
4,PLCXD1 C153 (UniProt Q9NUJ7),-0.0684
5,PMM1 C145 (UniProt Q92871),-0.0783
6,PLAAT3 C113,0.172
7,PIGW C409 (UniProt Q7Z7B1),0.12
8,POLR1A C1562 (UniProt O95602),-0.0108
9,PIP4K2C C104 (UniProt Q8TBX8),0.00677
10,PIK3CD C90 (UniProt O00329),-0.196
11,PKN2 C704 (UniProt Q16513),-0.42
12,PLS1 C142 (UniProt Q14651),-0.272
13,PHF6 C305 (UniProt Q8IWS0),0.301
14,PKP2 C416 (UniProt Q99959),-0.225
15,PIK3C2A C317 (UniProt O00443),-0.0582
16,PKN3 C706 (UniProt Q6P5Z2),-0.0492
17,POLE C1612 (UniProt Q07864),0.185
18,POC1B C306 (UniProt Q8TC44),-0.215

# Same assay, conditions: 200 µM; treatment time: 4 h; cell line lysate: HEK293T
row,Target,log2 mean competition ratio
1,PIK3R4 C693 (UniProt Q99570),0.2
2,POC1A C5 (UniProt Q8NBT0),-0.275
3,PLCB3 C1176 (UniProt Q01970),0.363
4,PHF5A C11 (UniProt Q7RTV0),-0.131
5,POLR1G C14,0.0913
6,PLIN2 C47 (UniProt Q99541),-0.108
7,PHYHD1 C49 (UniProt Q5SRE7),0.222
8,PLCG2 C624 (UniProt P16885),-0.41
9,PIK3C3 C336 (UniProt Q8NEB9),0.086
10,PHF3 C350 (UniProt Q92576),-0.129
11,PLOD1 C484 (UniProt Q02809),-0.314
12,POLR1A C1332 (UniProt O95602),-0.295
13,PIGK C280 (UniProt Q92643),-0.0782
14,PIK3C2A C908 (UniProt O00443),-0.154
15,PLD2 C736,-0.22
16,POLD1 C512 (UniProt P28340),0.304
17,PKNOX1 C326 (UniProt P55347),0.249
18,PLEKHA5 C473 (UniProt Q9HAU0),-0.0604
19,PLPP6 C55 (UniProt Q8IY26),0.223

row,Target,log2 mean competition ratio
1,PITX1 C77 (UniProt P78337),0.2
2,PIP4P1 C87 (UniProt Q86T03),-0.165
3,PIAS3 C418,-0.162
4,PLCXD1 C153 (UniProt Q9NUJ7),0.169
5,PMM1 C145 (UniProt Q92871),0.116
6,PLAAT3 C113,0.842
7,PIGW C409 (UniProt Q7Z7B1),0.182
8,POLR1A C1562 (UniProt O95602),-0.109
9,PIP4K2C C104 (UniProt Q8TBX8),-0.0342
10,PIK3CD C90 (UniProt O00329),-0.491
11,PKN2 C704 (UniProt Q16513),-0.141
12,PLS1 C142 (UniProt Q14651),-0.355
13,PHF6 C305 (UniProt Q8IWS0),0.0974
14,PKP2 C416 (UniProt Q99959),-0.441
15,PIK3C2A C317 (UniProt O00443),-0.101
16,PKN3 C706 (UniProt Q6P5Z2),0.232
17,POLE C1612 (UniProt Q07864),0.21
18,POC1B C306 (UniProt Q8TC44),-0.0398
